The values that follow come from publication PMC6347521 (Current protocols in toxicology, 2018).

In test [1] the test system is Hep3B human hepatoma cell line. Put plainly: cells. The test is classed as cell-based. The conditions noted are these: 48 h, read-out: IC50 Hoechst.
Test [2] relates to Hep3B human hepatoma cell line. Put plainly: cells. The conditions noted are these: 48 h, read-out: IC50 mBCl. The test is classed as cell-based.
In test [3] the test system is Hep3B human hepatoma cell line. Put plainly: cells. It is filed as cell-based. The conditions noted are these: 48 h, read-out: IC50 Calcein AM.
The next test deals with 2D. As to conditions: read-out: IC50 2D (literature review); cited from earlier work.

Like-named read-outs stand apart in the source and are kept apart here.

For the molecule `CC/C(=C(\c1ccccc1)c1ccc(OCCN(C)C)cc1)c1ccccc1` [Tamoxifen], the IC50 in test [1] is 102 ± 6.2 µM; in test [2] it was 83 ± 18.5 µM; in test [3], 57 ± 4.3 µM; in the test with 2D it was 45 µM.
